No constants are given. Whether binding was seen depends on the method and setting. Some results given as binding are weak or reduced against the parent protein; the word gives no strength. Where a sequence is shown, tags or fusion partners need not be part of it.
Key:
[1] = biological target: T1, MBP-SYCP1N (amino-acids 1-362) (UniProt Q15431); test: pull-down
T1 sequence: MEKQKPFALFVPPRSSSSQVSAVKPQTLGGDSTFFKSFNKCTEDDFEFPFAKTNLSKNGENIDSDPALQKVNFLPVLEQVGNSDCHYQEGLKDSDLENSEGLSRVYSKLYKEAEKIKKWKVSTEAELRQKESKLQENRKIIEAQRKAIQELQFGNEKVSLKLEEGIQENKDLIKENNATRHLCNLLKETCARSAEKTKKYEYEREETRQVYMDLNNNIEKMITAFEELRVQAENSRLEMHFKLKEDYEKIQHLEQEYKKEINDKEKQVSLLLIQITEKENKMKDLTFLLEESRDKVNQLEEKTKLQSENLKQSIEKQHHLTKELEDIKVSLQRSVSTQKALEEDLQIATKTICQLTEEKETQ

[2] = biological target: T2, MBP-SYCP1 amino-acids 1-100 (UniProt Q15431); test: SEC
T2 sequence: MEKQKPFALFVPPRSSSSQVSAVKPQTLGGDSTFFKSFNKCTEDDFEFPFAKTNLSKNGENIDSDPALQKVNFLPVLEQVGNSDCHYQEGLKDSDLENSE

[3] = biological target: T1, MBP-SYCP1N (amino-acids 1-362); test: SEC

binding [1]: binds weakly
binding [2]: binds weakly
binding [3]: binds weakly
B1: SYCE2-TEX12 complex (complex, UniProt Q6PIF2 1-218; Q9BXU0 1-123)
chain 1: MERQGVDVPHVKCKDQEPQPLGESKEHPRWEENCEEEAGGGPASASCQLTVLEGKSGLYFSSLDSSIDILQKRAQELIENINKSRQKDHALMTNFRNSLKTKVSDLTEKLEERIYQIYNDHNKIIQEKLQEFTQKMAKISHLETELKQVCHSVETVYKDLCLQPEQSLRLRWGPDHSRGKSPPRPGNSQPPDVFVSSVAETTSQATASEVQTNRDGEC
chain 2: MMANHLVKPDNRNCKRPRELESPVPDSPQLSSLGKSDSSFSEISGLFYKDEALEKDLNDVSKEINLMLSTYAKLLSERAAVDASYIDEIDELFKEANAIENFLIQKREFLRQRFTVIANTLHR
